# Experimental data published in patent US20040132160A1 (University of Texas, published 2004).
# These are yes or no findings as the source states them, for the method shown. In cells and extracts the contact can be indirect. Some entries that bind do so weakly or less than the wild type. Sequences can lack the tags named with a protein.
# T1: full-length MURF-1 with C-terminal myc tag (murine) (UniProt Q9ERP3)
# T1 sequence: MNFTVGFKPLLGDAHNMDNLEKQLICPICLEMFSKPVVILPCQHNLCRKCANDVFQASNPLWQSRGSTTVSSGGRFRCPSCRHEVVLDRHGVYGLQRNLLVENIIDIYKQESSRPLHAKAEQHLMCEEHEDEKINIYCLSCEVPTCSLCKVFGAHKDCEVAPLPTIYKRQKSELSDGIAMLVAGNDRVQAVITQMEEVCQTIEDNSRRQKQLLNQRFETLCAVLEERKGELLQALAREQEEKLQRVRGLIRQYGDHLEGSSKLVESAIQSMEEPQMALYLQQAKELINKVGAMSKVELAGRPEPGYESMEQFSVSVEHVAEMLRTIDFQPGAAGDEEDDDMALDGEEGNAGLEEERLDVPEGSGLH
# Target: T1, full-length MURF-1 with C-terminal myc tag (murine)
# Assay: co-immunoprecipitation of 35S-labeled in vitro translated proteins with Flag antibody M2
row,binding,Binder
1,binds,"MURF-1 deletion mutant N81 with N-terminal Flag tag (protein, not shown: small tags and cut ends) RHEVVLDRHGVYGLQRNLLVENIIDIYKQESSRPLHAKAEQHLMCEEHEDEKINIYCLSCEVPTCSLCKVFGAHKDCEVAPLPTIYKRQKSELSDGIAMLVAGNDRVQAVITQMEEVCQTIEDNSRRQKQLLNQRFETLCAVLEERKGELLQALAREQEEKLQRVRGLIRQYGDHLEGSSKLVESAIQSMEEPQMALYLQQAKELINKVGAMSKVELAGRPEPGYESMEQFSVSVEHVAEMLRTIDFQPGAAGDEEDDDMALDGEEGNAGLEEERLDVPEGSGLH"
2,binds,"MURF-1 deletion mutant N167 with N-terminal Flag tag (protein, not shown: small tags and cut ends) KRQKSELSDGIAMLVAGNDRVQAVITQMEEVCQTIEDNSRRQKQLLNQRFETLCAVLEERKGELLQALAREQEEKLQRVRGLIRQYGDHLEGSSKLVESAIQSMEEPQMALYLQQAKELINKVGAMSKVELAGRPEPGYESMEQFSVSVEHVAEMLRTIDFQPGAAGDEEDDDMALDGEEGNAGLEEERLDVPEGSGLH"
